Data from article PMC10163288.
The list shows a part of the results.

B1: il10ra_site1_normal_mot_HHH_b2_01649_af2_000000191_0001_40_56_H_._HHH_b1_07449_0001_0000100004_0000002_0 (protein)
chain: SSSSDSEVAYRFHKELAEEALKLGNREEAEKILRAAIEALRRLNDEELVEELEELLEEVRGSSSS
B2: il10ra_site1_normal_mot_HHH_b1_04708_000000014_0001_1_19_H_._HHH_b1_05863_0001_0000200030_0000001_1 (protein)
chain: SSSSTLEEAVRFTLEVIRQRIELGDEEHARFIIEVLERAIREAGDEELLEELERLLEELNSSSSS
B3: il10ra_site1_sap_17_mot_HHH_b2_08265_af2_000000206_0001_22_38_H_._HHH_b2_05578_af2_0001_0000200017_0000001_0_0001 (protein)
chain: SSSSDVEEEAKELTREAEELAKELGNRAVLFLLRQLLEAIELSGDPKALEMLESLFKTLEGSSSS
B4: il10ra_site1_sap_14_mot_HHH_b2_07442_000000239_0001_40_54_H_._HHH_b1_06878_0001_0000300020_0000001_0_0001 (protein)
chain: SSSSDESRELFELSEEAARLLTEGNPEEAEEVLEEAEKIAKERGSRVILKALEHLLRAIRSSSSS
B5: il10ra_site1_normal_mot_HHH_b1_04100_af2_000000180_0001_1_19_H_._HHH_b2_02890_0002_0000300020_0000002_0_af2pred_0001 (protein)
chain: SSSSSVAEKAVRILLKAARQIEDPEAVKLTLRDAKAAARANNNEELEREIEEVERELKELLSSSS
B6: il10ra_site1_normal_mot_HHH_b1_02997_000000220_0001_39_52_H_._HHH_b1_06167_0001_0000500039_0000002_0_af2pred_0001 (protein)
chain: SSSSSEEAHRLFELSRRAIELLADGNPEEAEEVVEEALELARELGNEVLRVVLEFLLEQIRSSSS
B7: il10ra_site1_sap_17_mot_HHH_b2_03425_000000200_0001_22_39_H_._HHH_b2_02312_af2_0001_0000700072_0000001_1_0001 (protein)
chain: SSSSSDESFEAVRKAIEEALELWRRGNPEEAREVLEEAIEFVRERGDWAAKFALKHLAELLSSSS
B8: il10ra_site1_sap_20_mot_HHH_b1_01886_000000262_0001_1_18_H_._HHH_b1_05552_af2_0001_0000500031_0000001_0_0001_af2pred_0001 (protein)
chain: SSSSSDEEEVRKRAEELFERAEKVSPEEVKRILHEIVELAKEYEDLEVARLASELLELSSSSSSS
B9: il10ra_site1_sap_21_mot_HHH_b2_04050_000000291_0001_1_20_H_._HHH_b2_06391_af2_0001_0000100001_0000001_1_0001 (protein)
chain: SSSSSDEEYEERVEELLEEAEKIPDPRERSHVLLRAVQLAFHGQDPELVRAVWRVFEKLFSSSSS
B10: il10ra_site1_normal_mot_HHH_b1_05357_000000034_0001_23_39_H_._HHH_b2_03756_0001_0000100003_0000001_0 (protein)
chain: SSSSDEEEEVEELLRRAEELAKEGDRRRVSHLLIRAYAVASRLGDPELERLVREVARRLLSSSSS
B11: il10ra_site1_sap_16_mot_HHH_b2_05343_000000235_0001_19_35_H_._b5d408fb59e05adbbadd706aaa09cbfb_0001_af2_0001_0000900021_0000001_0_0001 (protein)
chain: SSSSTDAQEVFELIREAVELLTEGDPEEAEEVLKKARELAEELGDRLLEWQIEFLERLIRSSSSS
B12: il10ra_site1_sap_21_mot_HHH_b1_05254_000000006_0001_1_19_H_._HHH_b1_07705_0001_0000100013_0000001_0_0001 (protein)
chain: SSSSSSEEEVEELIKEARELLENGDPERAAKVLQRAIRLAFELGDAELLQRIWELLARQRSSSSS
B13: il10ra_site1_normal_mot_HHH_b1_04940_000000219_0001_1_18_H_._HHH_b2_07435_0001_0000400043_0000001_1_af2pred_0001 (protein)
chain: SSSSDEELLKKTIEVAKRLLEHGDEEAARRLLRAALDIAERLNDEEVVRELRELLEEIENSSSSS
B14: il10ra_site1_sap_20_mot_HHH_b2_06199_000000213_0001_1_17_H_._70c42a40e9bcf7739a80f3883b181487_0001_1_0001_0000200014_0000002_0_0001 (protein)
chain: SSSSDEESRRVMELIEEATELAQRGDPEQAREVLEEALELARELGNLLMEWQLEWLLELLSSSSS
B15: il10ra_site1_sap_18_mot_HHH_b1_04070_000000068_0001_43_55_H_._0803d6617dd33f2871c335afc9275591_0001_0001_0000100024_0000001_0_0001 (protein)
chain: SSSSSDEQERLLELMQQAFRLALRGDPEEAREVLEEALELAEELGDERAKRMIRDLLKSLSSSSS
B16: il10ra_site1_normal_mot_HHH_b1_08513_000000269_0001_42_56_H_._HHH_b1_07453_0001_0000300026_0000001_0 (protein)
chain: SSSSSSSEEEIEELLKEIERSTDPEELHKLLRKVAELASELNDEELYRRVLELSQEFINSSSSSS
B17: il10ra_site1_sap_12_mot_8756ee2cf497b5429c717dfc0c0bcfd6_0001_000000186_0001_1_13_H_._HHH_b2_01371_af2_0001_0000500020_0000001_1_0001 (protein)
chain: SSSSNTLEWSVRFALKHAEELLEEGDEEKAKILLEAILRHVRQAKNEELLEEIERLLEEVRSSSS
B18: il10ra_site1_normal_mot_HHH_b2_00984_000000042_0001_1_20_H_._HHH_b2_02613_af2_0001_0000700025_0000001_0 (protein)
chain: SSSSSTEEEIEELIKKAEEAAENGDPRKAFELLAEASRYALELGDAELLQEIWELIKKLNSSSSS
B19: il10ra_site1_normal_mot_HHH_b2_07144_000000289_0001_1_18_H_._HHH_b2_04284_0001_0000200013_0000001_1 (protein)
chain: SSSSSENHRAYELSREAAELLRQGNEEEAREVLEEVKEIAEEANNPILEFAARAIEKAVNSSSSS
B20: il10ra_site1_sap_19_mot_HHH_b2_01310_000000089_0001_41_55_H_._HHH_b2_02509_af2_0001_0000100001_0000001_0_0001_af2pred_0001 (protein)
chain: SSSSDEEYEEEVRELLEEAKHIEDPKERAYVLIRAYALAVKARDPELEELVKKVARELIGSSSSS
B21: il10ra_site1_sap_11_mot_8f2fda87c81871a3aab3e6ec2ca46b51_0001_000000224_0001_1_15_H_._8fcd63acc1b0ddff2aacf4df2caf1c72_0001_1_af2_0001_0000300020_0000001_0_0001 … (protein)
chain: SSSSSSEKKVEAEALIFFARYASNEEAARIALELAEEIAEELNDPELEELIEEVEKKLRSSSSSS
B22: il10ra_site1_normal_mot_8756ee2cf497b5429c717dfc0c0bcfd6_0001_000000186_0001_1_13_H_._HHH_b1_06988_0001_0000100013_0000001_1_af2pred_0001 (protein)
chain: SSSSSEEREELLKLSREVIELKQNGNPEEARELVEEAIRLAEELGNLNILAILRFLEEILSSSSS
B23: il10ra_site1_sap_20_mot_HHH_b2_00943_af2_000000149_0001_1_17_H_._HHH_b1_08116_af2_0001_0000300005_0000001_0_0001 (protein)
chain: SSSSSQEWQELAEEAKEVAEEVGDEMAEELIKAIKRLVEQGILDEEMASASLRLLIERLRSSSSS
B24: il10ra_site1_normal_mot_HHH_b2_02933_000000199_0001_1_19_H_._HHH_b2_00234_af2_0001_0000200006_0000001_0_af2pred_0001 (protein)
chain: SSSSSSSEAEEALKLLREALKIDDPEEFEEVIEEARRLAEEANNTILRFAIEFVAKEFNSSSSSS

biological target: il10ra, Q13651; experiment: yeast display titration

Apparent Kd, inactive:
B1 no binding seen, B2 no binding seen, B3 no binding seen, B4 no binding seen, B5 no binding seen, B6 no binding seen, B7 no binding seen, B8 no binding seen, B9 no binding seen, B10 no binding seen, B11 no binding seen, B12 no binding seen, B13 no binding seen, B14 no binding seen, B15 no binding seen, B16 no binding seen, B17 no binding seen, B18 no binding seen, B19 no binding seen, B20 no binding seen, B21 no binding seen, B22 no binding seen, B23 no binding seen, B24 no binding seen
